No constants are given. Whether binding was seen depends on the method and setting. Some binding calls cover weakened binding; strength is not graded here.
Molecular target: respiratory syncytial virus matrix protein (M) (human respiratory syncytial virus (strain A2)) (UniProt P0DOE7)
Experiment: cryo-EM structure; cryo-ET with sub-tomogram averaging (Dynamo) of the envelope of filamentous RSV virions from infected A549 cells grown on the grid; 16 Å map of the matrix layer; X-ray structure of the M dimer fitted in Chimera/ChimeraX

B1: respiratory syncytial virus matrix protein (M) (protein, UniProt P0DOE7 1-256)
chain: METYVNKLHEGSTYTAAVQYNVLEKDDDPASLTIWVPMFQSSMPADLLIKELANVNILVKQISTPKGPSLRVMINSRSAVLAQMPSKFTICANVSLDERSKLAYDVTTPCEIKACSLTCLKSKNMLTTVKDLTMKTLNPTHDIIALCEFENIVTSKKVIIPTYLRSISVRNKDLNTLENITTTEFKNAITNAKIIPYSGLLLVITVTDNKGAFKYIKPQSQFIVDLGAYLEKESIYYVTTNWKHTATRFAIKPMED
Question: B1 was tested. Which binding did it give?
Answer: Its binding is “binds”.

— PMC8804925
